These results are taken from patent US20220324950A1.

By UniProt entry, the sequences of proteins in these tests, tags left out. Residues count along the entry.
UniProt Q8NHJ6, residues 22-259: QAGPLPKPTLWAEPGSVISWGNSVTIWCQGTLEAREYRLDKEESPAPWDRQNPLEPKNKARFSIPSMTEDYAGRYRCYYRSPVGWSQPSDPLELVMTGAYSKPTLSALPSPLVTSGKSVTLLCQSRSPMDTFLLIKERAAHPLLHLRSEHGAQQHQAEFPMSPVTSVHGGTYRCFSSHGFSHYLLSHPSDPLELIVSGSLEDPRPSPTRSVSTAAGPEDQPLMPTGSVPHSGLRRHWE
UniProt P02751, residues 32-608: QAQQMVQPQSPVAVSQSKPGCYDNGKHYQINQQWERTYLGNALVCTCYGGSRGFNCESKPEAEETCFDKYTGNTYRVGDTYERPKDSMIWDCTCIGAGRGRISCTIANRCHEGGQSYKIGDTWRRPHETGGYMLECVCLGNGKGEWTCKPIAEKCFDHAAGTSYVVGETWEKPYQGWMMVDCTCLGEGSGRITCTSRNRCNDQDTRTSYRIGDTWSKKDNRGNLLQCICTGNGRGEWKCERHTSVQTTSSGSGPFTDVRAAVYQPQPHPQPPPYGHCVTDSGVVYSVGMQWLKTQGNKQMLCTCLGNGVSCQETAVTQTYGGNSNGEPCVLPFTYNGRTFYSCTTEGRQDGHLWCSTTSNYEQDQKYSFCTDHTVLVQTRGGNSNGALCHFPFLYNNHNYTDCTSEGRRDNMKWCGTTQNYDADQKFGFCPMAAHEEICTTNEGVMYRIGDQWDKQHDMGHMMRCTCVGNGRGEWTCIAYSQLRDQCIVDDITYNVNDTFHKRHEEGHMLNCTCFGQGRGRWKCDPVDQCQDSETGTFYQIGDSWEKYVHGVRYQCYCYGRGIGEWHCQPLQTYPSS

For this assay, the target named is His-tagged human LILRB4 (human) (UniProt Q8NHJ6). Briefly: BLI (BLItz), His-tagged human LILRB4 on Ni-NTA sensor.

No constants are given. Whether binding was seen depends on the method and setting. Some binding calls cover weakened binding; strength is not graded here.

For “N-terminal cathepsin D digested fragment 70 kDa polypeptide of human fibronectin (from UniProt P02751 32-608) (ligand)”, the binding entry is on record as “binds”.
